{
  "source": "patent US9403873B2",
  "about": "“Peptides targeting receptor activator of nuclear factor-κB (RANK) and their applications” (UNIVERSITE DE NANTES, priority 2011, dated 2016)",
  "note": "Some results were stated once for a whole list of compounds, not compound by compound. Some ranges recur; such a range may be that of the whole group of compounds.",
  "data": [
    {"tested_on": "human CD14+ monocytes", "type": "cell-based", "conditions": "50 μM polypeptide; compared to cells treated with soluble RANKL alone", "text": "Human peripheral blood mononuclear cells (PBMCs) were isolated by centrifugation over Ficoll gradient (Sigma, Saint Quentin Fallavier, France). CD14^+ cells were magnetically labeled with CD14 Microbeads and positively selected by MACS technology (Miltenyi Biotec, Paris, France) as described previously (Duplomb et al. 2008). CD11b^+ monocytes were purified from murine bone marrow cells obtained by flushing the bone marrow from femora and tibiae of 4-week-old C57BL6 male mice, using MACS microbeads (Baud'huin et al. 2010). The purity of cell preparations was around 96%, as controlled by flow cytometry. Generation of osteoclasts from human CD14^+ and murine CD11b^+ monocytes was performed as described previously (Duplomb et al. 2008, Baud′huin et al. 2010). Briefly, purified cells were cultured in α-minimum essential medium (α-MEM, Gibco/Invitrogen, USA) with 10% fetal calf serum and 25 ng/mL human/murine macrophage colony-stimulating factor (M-CSF, R&D Systems, Abindgton, UK). After 3 days of culture, cell medium was replaced by fresh medium containing M-CSF and recombinant human RANKL (100 ng/mL, R&D system), supplemented with or without a polypeptide of interest (0.5-100 μM) or 50 ng/mL human OPG (R&D Systems) used as a reference inhibitor. Soluble cytokines, receptor and polypeptides were renewed every 3 days until multinucleated osteoclasts had formed. After 12 days of culture for CD14^+ cells and 15 days for CD11b^+ cells, osteoclasts were visualized by TRAP staining (Sigma, France) and cells formed with three or more nuclei were manually counted and analyzed statistically.", "values": [
      {"sequence": "ELASFLKISQLG (Pep501 binding to the RANK cleft)", "reduction of formation of TRAP-positive multinucleated cells": "25-35%"},
      {"sequence": "NEMDLPKKSCLMN (PepA19 binding to the RANK cleft)", "reduction of formation of TRAP-positive multinucleated cells": "25-35%"},
      {"sequence": "WAARLGDPT (PepA20 binding to the RANK cleft)", "reduction of formation of TRAP-positive multinucleated cells": "25-35%"}
    ]}
  ]
}
